The other results are listed elsewhere or left out. These are further read-outs of the screen, such as a control signal, another cell line or another target. No call is given for them. Most of these compounds were active or inconclusive in the main read-out, so they are no random draw. Potencies come from curve fits of mixed quality, noted in brackets.
Experiment: qHTS Assay to Find Inhibitors of Chronic Active B-Cell Receptor Signaling
Settings: ABC-DLBCL IkBa-CBG/CBR reporter, luminescence ratio (green luciferase fused to IkBa over red control in TMD8 lymphoma cells), 4 h
Procedure, shortened: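 Doxycycline induced both beetle luciferases in TMD8 lymphoma cells; IKK-driven degradation limits the IkappaBalpha-fused green signal, while red luminescence normalises for cell number and nonspecific effects. Compounds tested up to 46 uM, 4 hrs.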

[1] = measured here: CBR red luminescence, cell number
[2] = measured here: IkBa-CBG green luminescence

## O=C(N/N=C\C1CC=CCC1)c1ccc(Br)o1 (stereo not given)
[1]
  AC50: 35.5 µM [falling, single point]

## COc1ccc(C(=O)N[C@H](C(=O)Nc2ccc(OC)nc2)C(C)C)cc1
[1]
  AC50: 8.2 µM [rising, partial curve, poor fit]

## CC1(C)Oc2ccc3ccc(=O)oc3c2/C(=C/NNC(N)=S)C1=O
[1]
  AC50: 35.5 µM [falling, single point]

## CCc1cc(=O)[nH]c(SCC(=O)N2CCC(Cc3ccccc3)CC2)n1
[1]
  AC50: 23.1 µM [falling, partial curve]

## Cc1nc(NC(=O)c2cc3ccccc3o2)sc1C
[1]
  AC50: 2.24 µM [falling, full curve, poor fit]

## CC(=O)Nc1ccc(S(=O)(=O)Oc2cccc(N3C(=O)C4CC=CCC4C3=O)c2)cc1 (stereo not given)
[1]
  AC50: 14.6 µM [falling, partial curve, poor fit]

## CCOc1cc2oc(=O)c3c(c2cc1Cl)CCC3
[1]
  AC50: 6.51 µM [rising, single point]

## COc1ccc(C(=O)Nc2sc(C(=O)N(C)C)c(C)c2C#N)cc1[N+](=O)[O-]
[1]
  AC50: 5.17 µM [rising, partial curve]

## Cc1ccc(S(=O)(=O)N/N=C\c2cccnc2)cc1
[1]
  AC50: 11.2 µM [falling, single point]

## C=CCS(=O)(=O)c1nc2ccccc2s1
[1]
  AC50: 3.16 µM [falling, partial curve, poor fit]

## O=C(CCS(=O)(=O)Cc1ccccc1)Nc1nnc(C(F)(F)F)s1
[1]
  AC50: 11.2 µM [falling, partial curve]

## COc1ccc(-c2ccc(SCC(=O)N3CCOCC3)nn2)cc1OC
[1]
  AC50: 35.5 µM [falling, single point]

## O=c1cc(CSc2nnnn2-c2ccccc2)[nH]c2[nH]n(-c3ccccc3)c(=O)c12
[1]
  AC50: 8.2 µM [falling, partial curve]

## CC(=O)Nc1ccc(S(=O)(=O)N(C)c2ccc(OCC(=O)Nc3ccccc3C(C)=O)cc2)cc1
[1]
  AC50: 23.1 µM [falling, partial curve, poor fit]

## N#Cc1ccsc1NC(=O)c1ccccn1
[1]
  AC50: 11.2 µM [rising, partial curve, poor fit]

## Cc1cc(C)n(C(=O)c2cccc(S(=O)(=O)N3CCOCC3)c2)n1
[1]
  AC50: 0.651 µM [rising, full curve, poor fit]

## O=C(COC(=O)c1cc(-c2ccco2)nc2ccccc12)NCc1ccccc1
[1]
  AC50: 2.06 µM [falling, partial curve, poor fit]

## O=C(O)/C=C/C(=O)Nc1ccccc1C(=O)Nc1ccccc1
[1]
  AC50: 29.1 µM [falling, single point]

## COc1ccc(Cl)cc1C(=O)O/N=C(\N)c1ccncc1
[1]
  AC50: 0.126 µM [rising, full curve, poor fit]

## CC(C)(C)c1ccc(CN2N=Nc3ccccc3S2(=O)=O)cc1
[1]
  AC50: 25.1 µM [rising, single point]
[2]
  AC50: 15.8 µM [falling, single point]

## CCN1CCc2c(sc(NC(=O)c3ccc(S(=O)(=O)N4CCCC(C)C4)cc3)c2C(=O)OC)C1 (stereo not given)
[1]
  AC50: 0.562 µM [falling, partial curve, poor fit]

## CCCc1[nH]nc2c1C(c1ccncc1)C(C#N)=C(N)O2 (stereo not given)
[1]
  AC50: 35.5 µM [falling, partial curve, poor fit]

## CC(=O)Nc1cccc(NC(=O)CCc2ccccc2)c1
[1]
  AC50: 3.26 µM [falling, full curve]

## CCS(=O)(=O)c1cc([N+](=O)[O-])c(Sc2ccccc2N)s1
[1]
  AC50: 1.78 µM [rising, partial curve, poor fit]

## CN(C)C(=O)c1cn(-c2ccccc2)nc1-c1cccc([N+](=O)[O-])c1
[1]
  AC50: 5.01 µM [rising, full curve, poor fit]

## COC(=O)C1=CN(Cc2ccc(OC)c(OC)c2)C=C(C(=O)OC)C1c1ccc(F)cc1
[1]
  AC50: 2.24 µM [rising, partial curve, poor fit]

## COc1ccc(/C=C2\SC(=S)N(CCC(=O)Nc3ccc(C(=O)O)cc3)C2=O)cc1
[1]
  AC50: 6.31 µM [falling, partial curve, poor fit]

## COC(=O)c1cccc2c1-c1ccccc1/C2=N/O
[1]
  AC50: 1.3 µM [falling, full curve, poor fit]

## CCOC(=O)c1c(S(=O)(=O)N2CCC(C(=O)NCc3cccc(OC)c3)CC2)c(C)n(C)c1C
[1]
  AC50: 3.16 µM [rising, single point]

## O=C(N/N=C/c1ccc2c(c1)OCO2)c1ccc2ccccc2n1
[1]
  AC50: 11.2 µM [falling, single point]

## COc1ccc(NC(=O)COc2ccc(/C=N/NC(=O)c3cccnc3)cc2OC)cc1
[1]
  AC50: 20.6 µM [falling, single point]

## CC[n+]1c(/C=C/N(C)c2ccccc2)n(-c2ccccc2)c2ccc(-c3nc4ccccc4s3)cc21
[1]
  AC50: 7.94 µM [falling, partial curve]
[2]
  AC50: 35.5 µM [rising, partial curve, poor fit]

## Cc1ccc2c(c1)C1(C)C(C(C)(C)N2C=O)C1(Cl)Cl (stereo not given)
[1]
  AC50: 15.8 µM [rising, partial curve, poor fit]

## Cc1cc(C(=O)N/N=C/c2ccc3c(c2)OCO3)c(C)o1
[1]
  AC50: 4.47 µM [falling, partial curve]

## [O-]/[N+](=C\C=C\c1ccccc1)c1ccccc1
[1]
  AC50: 10 µM [falling, partial curve]

## COc1ccccc1NC(=O)COc1coc(CN2CCN(c3ccccc3)CC2)cc1=O
[1]
  AC50: 0.82 µM [falling, partial curve, poor fit]

## COc1ccc2cc3cc(C(=O)Nc4ccc5c(c4)OCCO5)oc3nc2c1
[1]
  AC50: 15.8 µM [rising, partial curve, poor fit]

## CCN(CC)S(=O)(=O)c1ccc(N=Nc2c(C)[nH]n(C(N)=S)c2=O)cc1
[1]
  AC50: 29.1 µM [rising, single point]

## Cc1cccc(NC(=S)N(CCN2CCOCC2)Cc2cc3cc4c(cc3[nH]c2=O)OCCO4)c1
[1]
  AC50: 35.5 µM [falling, single point]

## COc1ccc(C=NCC2OCCc3ccccc32)cc1OC (stereo not given)
[1]
  AC50: 0.82 µM [rising, full curve, poor fit]

## CCOC(=O)N1CCN(Cc2nc3c(c(=O)n(C)c(=O)n3C)n2Cc2ccccc2)CC1
[1]
  AC50: 0.411 µM [rising, full curve, poor fit]

## CCOc1ccc(NC(=O)c2cc(SC)ccc2Cl)cc1
[1]
  AC50: 2.91 µM [falling, partial curve]

## Cn1cc(S(=O)(=O)N2CCc3ccccc32)cc1C(=O)Nc1ccc(Cl)cc1
[1]
  AC50: 1.12 µM [falling, full curve, poor fit]

## CCCCN(CCCC)CC(O)CN1C(=O)NC(C)(C)C1=O (stereo not given)
[1]
  AC50: 1.46 µM [rising, full curve]

## COc1cccc(-c2c(C(=O)N/N=C/c3ccc(C)o3)nnn2-c2nonc2N)c1
[1]
  AC50: 11.2 µM [falling, single point]

## COc1ccc(-n2c(=O)c(CCC(=O)NCCc3ccccc3F)nc3ccccc32)cc1
[1]
  AC50: 16.4 µM [rising, single point]

## Cc1cc(Cl)c(OCCCn2ccnc2)c(Br)c1
[1]
  AC50: 11.6 µM [rising, partial curve, poor fit]
[2]
  AC50: 29.1 µM [falling, single point]

## C=CCC[C@@H](Cc1ccc(F)cc1)C(=O)OC[C@@H](C)NC(=O)[C@H](CC=C)CC(=O)N(CCO)Cc1ccccc1
[1]
  AC50: 14.6 µM [falling, partial curve]

## CCCC(=O)Nc1sc(Cc2ccccc2)c(C)c1C(N)=O
[1]
  AC50: 22.4 µM [falling, partial curve, poor fit]
[2]
  AC50: 1.12 µM [rising, full curve]

## COc1cc(SC#N)ccc1N=Cc1c(C)[nH]n(-c2ccc(C)c(C)c2)c1=O
[1]
  AC50: 16.4 µM [rising, partial curve, poor fit]

## N/N=C(/Cc1nc2ccccc2[nH]1)c1ccc([N+](=O)[O-])cc1
[1]
  AC50: 11.2 µM [falling, partial curve, poor fit]

## Cc1onc(-c2ccccc2)c1-c1n[nH]c(=S)n1-c1ccc(C(=O)O)cc1
[1]
  AC50: 20.6 µM [falling, single point]

## Cc1ccc(C2=NN(C(=O)CSc3nc4ncc(Cl)cc4[nH]3)C(c3ccco3)C2)cc1 (stereo not given)
[1]
  AC50: 20 µM [falling, partial curve, poor fit]

## COc1cc2c(cc1OC)C(c1cc3ccccc3oc1=O)=NC(C)(C)C2
[1]
  AC50: 12.6 µM [falling, single point]

## COc1ccc(NC(=O)CSc2nnc(Cc3ccccc3)c(=O)n2N)cc1OC
[1]
  AC50: 5.17 µM [falling, full curve, poor fit]

## O=C(NNC(=O)C1CC=CCC1C(=O)O)c1ccc(Cl)cc1 (stereo not given)
[1]
  AC50: 10 µM [falling, partial curve, poor fit]

## O=[N+]([O-])c1cccc(CNCc2ccccc2)c1
[1]
  AC50: 1.78 µM [rising, single point]

## O=C1c2ccccc2C(Nc2ccc3nc(-c4cccnc4)[nH]c3c2)N1Cc1ccco1 (stereo not given)
[1]
  AC50: 0.103 µM [falling, full curve, poor fit]

## O=C(O)c1ccccc1-c1nc2ccccc2[nH]1
[1]
  AC50: 20 µM [falling, partial curve, poor fit]

## O=C(Nc1cc(Cl)cc(Cl)c1)c1cc(S(=O)(=O)NC2CCCC2)ccc1F
[1]
  AC50: 14.1 µM [falling, partial curve, poor fit]

## COc1ccc(OC)c(S(=O)(=O)Nc2ccc(CC(=O)O)cc2)c1
[1]
  AC50: 29.1 µM [rising, partial curve, poor fit]

Reference: PubChem BioAssay AID493014 (National Center for Advancing Translational Sciences (NCATS), 2011)
